Source: the supplement of paper PMC6078165
Values are relative to the signal before dosing, not to a vehicle control; the signal also falls without drug.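 Labels refer to human fibroblasts, largely primary: uterine (C12385, HUF), lung (H6013), bone (Hs27A), adrenal (HADF), skin (WS1), plus mammary HMF and breast cancer-associated Hs343T. Cancer lines are basal-like or mesenchymal-like triple-negative breast cancer. The paper counts as hits responses shifting over 3x the replicate standard deviation. The tissue of the other fibroblasts is not given here.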

System: HCC1143
Test: relative JC-1 red fluorescence (viability) vs pre-drug, coculture with fibroblast (fraction); higher = more viable cancer cells
Experimental: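 JC-1 labelled TNBC cells cocultured 1:1 (1,500 cells each) with CellTrace Violet stained primary or stromal fibroblasts in 384-well plates in FluoroBrite medium, treated with one of 42 anticancer drugs at 0.1, 1, 10 or 100 uM. JC-1 red fluorescence (mitochondrial integrity in cancer cells only) was read by plate reader every 8 h for 72 h. Values are normalised to each well's pre-drug value. The stock of one drug was tenfold lower, so its dose labels may be too high.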

CO[C@@]12[C@H](COC(N)=O)C3=C(C(=O)C(C)=C(N)C3=O)N1C[C@@H]1N[C@@H]12 [Mitomycin C]
relative JC-1 red fluorescence
Settings | 8 h | 16 h | 24 h | 32 h | 40 h | 48 h | 56 h | 64 h | 72 h
0.1 µM, coculture fibroblast: C12385 | 0.844 | 0.768 | 0.683 | 0.611 | 0.536 | 0.482 | 0.434 | 0.387 | 0.353
0.1 µM, coculture fibroblast: H6013 | 0.759 | 0.663 | 0.629 | 0.614 | 0.515 | 0.479 | 0.434 | 0.399 | 0.387
0.1 µM, coculture fibroblast: H6019 | 0.857 | 0.804 | 0.793 | 0.749 | 0.702 | 0.643 | 0.597 | 0.553 | 0.504
0.1 µM, coculture fibroblast: H6076 | 0.81016 | 0.744 | 0.708 | 0.677 | 0.607 | 0.588 | 0.5433 | 0.5131 | 0.506
0.1 µM, coculture fibroblast: H6231 | 0.796 | 0.85 | 0.7304 | 0.5703 | 0.6173 | 0.5806 | 0.531 | 0.485 | 0.444
0.1 µM, coculture fibroblast: HADF | 0.7329 | 0.655 | 0.631 | 0.659 | 0.551 | 0.521 | 0.488 | 0.463 | 0.47
0.1 µM, coculture fibroblast: HCFa | 0.7956 | 0.679 | 0.651 | 0.641 | 0.543 | 0.497 | 0.457 | 0.421 | 0.418
0.1 µM, coculture fibroblast: HCPF | 0.7769 | 0.825 | 0.748 | 0.609 | 0.657 | 0.616 | 0.58 | 0.538 | 0.511
0.1 µM, coculture fibroblast: HHSteC | 0.8 | 0.6689 | 0.6222 | 0.5805 | 0.489 | 0.4549 | 0.406 | 0.376 | 0.33
0.1 µM, coculture fibroblast: HMF | 0.777 | 0.855 | 0.753 | 0.617 | 0.626 | 0.589 | 0.538 | 0.506 | 0.466
0.1 µM, coculture fibroblast: HPFa | 0.921 | 0.818 | 0.784 | 0.694 | 0.623 | 0.585 | 0.525 | 0.471 | 0.427
0.1 µM, coculture fibroblast: HUF | 0.877 | 0.755 | 0.686 | 0.5979 | 0.542 | 0.497 | 0.447 | 0.407 | 0.377
0.1 µM, coculture fibroblast: Hs5 | 0.877 | 0.878 | 0.856 | 0.854 | 0.784 | 0.776 | 0.755 | 0.739 | 0.753
0.1 µM, coculture fibroblast: Hs27A | 0.711 | 0.623 | 0.59 | 0.6137 | 0.5141 | 0.509 | 0.475 | 0.467 | 0.47
0.1 µM, coculture fibroblast: Hs343T | 0.8128 | 0.816 | 0.7626 | 0.699 | 0.673 | 0.643 | 0.592 | 0.573 | 0.537
0.1 µM, coculture fibroblast: WS1 | 0.8027 | 0.706 | 0.638 | 0.571 | 0.524 | 0.486 | 0.437 | 0.399 | 0.372
1 µM, coculture fibroblast: C12385 | 0.829 | 0.798 | 0.752 | 0.689 | 0.62 | 0.5806 | 0.5512 | 0.52 | 0.504
1 µM, coculture fibroblast: H6013 | 0.721 | 0.657 | 0.6209 | 0.594 | 0.52 | 0.497 | 0.458 | 0.436 | 0.398
1 µM, coculture fibroblast: H6019 | 0.7909 | 0.711 | 0.657 | 0.588 | 0.536 | 0.501 | 0.456 | 0.419 | 0.383
1 µM, coculture fibroblast: H6076 | 0.7797 | 0.774 | 0.705 | 0.648 | 0.599 | 0.57 | 0.531 | 0.507 | 0.497
1 µM, coculture fibroblast: H6231 | 0.8034 | 0.765 | 0.7 | 0.615 | 0.6 | 0.57 | 0.53 | 0.493 | 0.478
1 µM, coculture fibroblast: HADF | 0.714 | 0.645 | 0.607 | 0.599 | 0.51 | 0.481 | 0.455 | 0.427 | 0.417
1 µM, coculture fibroblast: HCFa | 0.7545 | 0.668 | 0.612 | 0.583 | 0.502 | 0.466 | 0.427 | 0.395 | 0.366
1 µM, coculture fibroblast: HCPF | 0.787 | 0.778 | 0.706 | 0.607 | 0.625 | 0.58 | 0.55 | 0.512 | 0.488
1 µM, coculture fibroblast: HHSteC | 0.798 | 0.74 | 0.698 | 0.662 | 0.595 | 0.567 | 0.537 | 0.509 | 0.462
1 µM, coculture fibroblast: HMF | 0.762 | 0.792 | 0.713 | 0.6 | 0.598 | 0.571 | 0.522 | 0.502 | 0.479
1 µM, coculture fibroblast: HPFa | 0.883 | 0.793 | 0.763 | 0.678 | 0.621 | 0.587 | 0.533 | 0.497 | 0.456
1 µM, coculture fibroblast: HUF | 0.846 | 0.76 | 0.71 | 0.634 | 0.586 | 0.557 | 0.508 | 0.473 | 0.443
1 µM, coculture fibroblast: Hs5 | 0.8455 | 0.8082 | 0.7891 | 0.7919 | 0.717 | 0.702 | 0.69 | 0.677 | 0.683
1 µM, coculture fibroblast: Hs27A | 0.689 | 0.629 | 0.588 | 0.611 | 0.505 | 0.51 | 0.49 | 0.484 | 0.474
1 µM, coculture fibroblast: Hs343T | 0.76 | 0.769 | 0.709 | 0.606 | 0.586 | 0.548 | 0.496 | 0.479 | 0.445
1 µM, coculture fibroblast: WS1 | 0.7918 | 0.706 | 0.667 | 0.602 | 0.555 | 0.513 | 0.476 | 0.449 | 0.42
10 µM, coculture fibroblast: C12385 | 0.839 | 0.767 | 0.6576 | 0.576 | 0.495 | 0.438 | 0.387 | 0.362 | 0.337
10 µM, coculture fibroblast: H6013 | 0.7494 | 0.645 | 0.6 | 0.558 | 0.47 | 0.46 | 0.4159 | 0.3921 | 0.327
10 µM, coculture fibroblast: H6019 | 0.804 | 0.682 | 0.5962 | 0.495 | 0.416 | 0.38 | 0.338 | 0.305 | 0.286
10 µM, coculture fibroblast: H6076 | 0.828 | 0.8272 | 0.775 | 0.721 | 0.685 | 0.666 | 0.623 | 0.581 | 0.583
10 µM, coculture fibroblast: H6231 | 0.829 | 0.839 | 0.753 | 0.653 | 0.667 | 0.631 | 0.583 | 0.555 | 0.532
10 µM, coculture fibroblast: HADF | 0.69681 | 0.615 | 0.572 | 0.576 | 0.448 | 0.422 | 0.386 | 0.36 | 0.324
10 µM, coculture fibroblast: HCFa | 0.753 | 0.652 | 0.583 | 0.531 | 0.428 | 0.405 | 0.357 | 0.332 | 0.278
10 µM, coculture fibroblast: HCPF | 0.802 | 0.801 | 0.734 | 0.628 | 0.625 | 0.59 | 0.564 | 0.53 | 0.53
10 µM, coculture fibroblast: HHSteC | 0.8542 | 0.762 | 0.732 | 0.687 | 0.578 | 0.536 | 0.487 | 0.465 | 0.407
10 µM, coculture fibroblast: HMF | 0.8029 | 0.826 | 0.728 | 0.625 | 0.628 | 0.586 | 0.518 | 0.486 | 0.454
10 µM, coculture fibroblast: HPFa | 0.9133 | 0.817 | 0.739 | 0.627 | 0.512 | 0.471 | 0.43 | 0.406 | 0.382
10 µM, coculture fibroblast: HUF | 0.8848 | 0.78686 | 0.684 | 0.534 | 0.468 | 0.436 | 0.39 | 0.358 | 0.343
10 µM, coculture fibroblast: Hs5 | 0.848 | 0.899 | 0.826 | 0.76 | 0.704 | 0.662 | 0.607 | 0.577 | 0.556
10 µM, coculture fibroblast: Hs27A | 0.723 | 0.675 | 0.663 | 0.705 | 0.589 | 0.592 | 0.581 | 0.564 | 0.576
10 µM, coculture fibroblast: Hs343T | 0.803 | 0.8066 | 0.7351 | 0.6578 | 0.623 | 0.58 | 0.513 | 0.484 | 0.448
10 µM, coculture fibroblast: WS1 | 0.83539 | 0.726 | 0.6506 | 0.553 | 0.483 | 0.442 | 0.391 | 0.368 | 0.355
100 µM, coculture fibroblast: C12385 | 0.679 | 0.594 | 0.547 | 0.523 | 0.48 | 0.48 | 0.483 | 0.474 | 0.478
100 µM, coculture fibroblast: H6013 | 0.59 | 0.487 | 0.473 | 0.453 | 0.456 | 0.475 | 0.459 | 0.455 | 0.383
100 µM, coculture fibroblast: H6019 | 0.601 | 0.483 | 0.452 | 0.408 | 0.382 | 0.376 | 0.35 | 0.344 | 0.333
100 µM, coculture fibroblast: H6076 | 0.713 | 0.608 | 0.544 | 0.561 | 0.485 | 0.487 | 0.471 | 0.461 | 0.48
100 µM, coculture fibroblast: H6231 | 0.6753 | 0.584 | 0.516 | 0.537 | 0.458 | 0.447 | 0.434 | 0.421 | 0.433
100 µM, coculture fibroblast: HADF | 0.604 | 0.495 | 0.468 | 0.456 | 0.436 | 0.449 | 0.437 | 0.434 | 0.362
100 µM, coculture fibroblast: HCFa | 0.588 | 0.471 | 0.437 | 0.427 | 0.417 | 0.417 | 0.403 | 0.396 | 0.34
100 µM, coculture fibroblast: HCPF | 0.745 | 0.644 | 0.566 | 0.554 | 0.492 | 0.478 | 0.461 | 0.444 | 0.455
100 µM, coculture fibroblast: HHSteC | 0.629 | 0.545 | 0.521 | 0.484 | 0.468 | 0.471 | 0.455 | 0.451 | 0.385
100 µM, coculture fibroblast: HMF | 0.7179 | 0.62146 | 0.533 | 0.52103 | 0.463 | 0.458 | 0.444 | 0.436 | 0.4425
100 µM, coculture fibroblast: HPFa | 0.695 | 0.555 | 0.523 | 0.475 | 0.434 | 0.442 | 0.417 | 0.419 | 0.412
100 µM, coculture fibroblast: HUF | 0.65172 | 0.458 | 0.395 | 0.339 | 0.303 | 0.3 | 0.276 | 0.269 | 0.259
100 µM, coculture fibroblast: Hs5 | 0.77385 | 0.649 | 0.591 | 0.611 | 0.5238 | 0.509 | 0.502 | 0.502 | 0.523
100 µM, coculture fibroblast: Hs27A | 0.585 | 0.551 | 0.546 | 0.562 | 0.531 | 0.577 | 0.56 | 0.56 | 0.455
100 µM, coculture fibroblast: Hs343T | 0.746 | 0.623 | 0.504 | 0.4984 | 0.42724 | 0.4123 | 0.3945 | 0.3902 | 0.401
100 µM, coculture fibroblast: WS1 | 0.6234 | 0.4597 | 0.416 | 0.372 | 0.352 | 0.347 | 0.335 | 0.326 | 0.323
